Data reported in patent US20120195860A1, “LATENT NEURAL STEM CELL POPULATION” (priority 2007, published 2012).
For at least one compound, name, drawing or mass did not settle the structure.

Test system: adult SVZ cells
Assay: primary neurosphere culture, SVZ
Assay type: cell-based, mouse
Conditions: in the presence or absence of depolarizing levels of potassium

**Q.** Which “inhibition of neurosphere formation in SVZ” value does the source give for COC(=O)C1=C(C)NC(C)=C(C(=O)OCCN(C)Cc2ccccc2)C1c1cccc([N+](=O)[O-])c1 (stereo not shown) [nicardipine] here?
**A.** Its value is “does not inhibit neurosphere formation”.
